Laboratory results from patent US8940799B2, “Adjusting drug loading in polymeric materials” (Medtronic Xomed, Inc., priority 2010, dated 2015).

Conditions: shunt catheter of 50/50 blend of 57 and 44 durometer material, loaded from chloroform, steam sterilized

CCC[C@@H]1C[C@@H](C(=O)N[C@@H]([C@H]2O[C@H](SC)[C@H](O)[C@@H](O)[C@H]2O)[C@H](C)Cl)N(C)C1 [Clindamycin, clindamycin]
degradation by steam sterilization: about 10%
